Assay results: the supplement of paper PMC6411743
± gives the standard deviation of the averaged measurements. This is one part of the list.

Sequences of proteins named here, by UniProt entry; tags and fusion partners are left off. A change or cut given only in a name is not applied to a line headed by its entry.
UniProt Q8IV50: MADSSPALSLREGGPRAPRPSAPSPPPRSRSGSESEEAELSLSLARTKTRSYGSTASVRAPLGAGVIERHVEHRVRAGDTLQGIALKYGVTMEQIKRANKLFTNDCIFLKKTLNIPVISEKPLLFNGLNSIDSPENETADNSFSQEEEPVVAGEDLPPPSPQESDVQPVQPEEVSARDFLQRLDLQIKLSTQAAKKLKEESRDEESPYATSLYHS
UniProt Q8N8N7: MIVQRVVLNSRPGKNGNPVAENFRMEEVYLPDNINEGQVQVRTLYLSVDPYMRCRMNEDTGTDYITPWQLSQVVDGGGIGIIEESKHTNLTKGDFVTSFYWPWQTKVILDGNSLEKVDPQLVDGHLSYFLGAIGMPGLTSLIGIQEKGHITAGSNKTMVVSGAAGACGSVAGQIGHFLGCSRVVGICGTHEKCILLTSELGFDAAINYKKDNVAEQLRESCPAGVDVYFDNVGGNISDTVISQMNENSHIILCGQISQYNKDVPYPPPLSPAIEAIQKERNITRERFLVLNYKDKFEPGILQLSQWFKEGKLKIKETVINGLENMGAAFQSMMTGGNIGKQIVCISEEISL
UniProt Q8N9M5: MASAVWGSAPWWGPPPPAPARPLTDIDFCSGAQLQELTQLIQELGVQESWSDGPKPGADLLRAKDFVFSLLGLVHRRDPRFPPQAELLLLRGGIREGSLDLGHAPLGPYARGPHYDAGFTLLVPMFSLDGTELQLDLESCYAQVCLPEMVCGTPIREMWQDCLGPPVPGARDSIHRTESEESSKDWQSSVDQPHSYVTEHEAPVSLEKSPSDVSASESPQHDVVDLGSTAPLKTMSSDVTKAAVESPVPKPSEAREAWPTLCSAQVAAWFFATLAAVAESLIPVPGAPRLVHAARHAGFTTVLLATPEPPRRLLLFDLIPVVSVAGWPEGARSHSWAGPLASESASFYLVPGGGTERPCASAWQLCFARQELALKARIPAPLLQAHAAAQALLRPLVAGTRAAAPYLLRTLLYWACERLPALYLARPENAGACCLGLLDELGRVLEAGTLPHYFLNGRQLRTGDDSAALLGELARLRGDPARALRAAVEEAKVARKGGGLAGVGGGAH
UniProt Q8N163, whole entry: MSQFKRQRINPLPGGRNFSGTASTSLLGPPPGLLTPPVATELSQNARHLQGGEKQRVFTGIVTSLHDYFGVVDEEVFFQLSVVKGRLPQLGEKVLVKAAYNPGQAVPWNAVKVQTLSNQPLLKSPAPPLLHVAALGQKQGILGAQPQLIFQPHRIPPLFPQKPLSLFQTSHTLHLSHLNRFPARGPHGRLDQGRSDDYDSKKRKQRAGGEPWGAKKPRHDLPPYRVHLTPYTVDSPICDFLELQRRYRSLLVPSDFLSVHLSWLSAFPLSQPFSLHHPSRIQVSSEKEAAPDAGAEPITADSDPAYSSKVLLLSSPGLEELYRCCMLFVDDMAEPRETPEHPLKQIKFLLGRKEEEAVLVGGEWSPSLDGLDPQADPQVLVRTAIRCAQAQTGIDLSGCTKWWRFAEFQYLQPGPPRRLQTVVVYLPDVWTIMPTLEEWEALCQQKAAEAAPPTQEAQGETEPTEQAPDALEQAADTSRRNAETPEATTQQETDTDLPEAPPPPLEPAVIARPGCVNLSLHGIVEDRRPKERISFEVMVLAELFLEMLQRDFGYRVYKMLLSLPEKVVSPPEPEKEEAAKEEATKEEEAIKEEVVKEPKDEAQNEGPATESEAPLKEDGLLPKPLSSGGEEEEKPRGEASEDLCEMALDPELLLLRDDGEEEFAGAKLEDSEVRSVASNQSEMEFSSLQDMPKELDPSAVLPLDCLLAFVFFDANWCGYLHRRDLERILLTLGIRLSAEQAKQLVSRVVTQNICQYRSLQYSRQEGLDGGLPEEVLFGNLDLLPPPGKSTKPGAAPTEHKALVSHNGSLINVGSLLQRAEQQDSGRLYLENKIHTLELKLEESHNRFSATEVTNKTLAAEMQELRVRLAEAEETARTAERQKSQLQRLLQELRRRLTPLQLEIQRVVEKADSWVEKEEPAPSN
UniProt Q8IYS1: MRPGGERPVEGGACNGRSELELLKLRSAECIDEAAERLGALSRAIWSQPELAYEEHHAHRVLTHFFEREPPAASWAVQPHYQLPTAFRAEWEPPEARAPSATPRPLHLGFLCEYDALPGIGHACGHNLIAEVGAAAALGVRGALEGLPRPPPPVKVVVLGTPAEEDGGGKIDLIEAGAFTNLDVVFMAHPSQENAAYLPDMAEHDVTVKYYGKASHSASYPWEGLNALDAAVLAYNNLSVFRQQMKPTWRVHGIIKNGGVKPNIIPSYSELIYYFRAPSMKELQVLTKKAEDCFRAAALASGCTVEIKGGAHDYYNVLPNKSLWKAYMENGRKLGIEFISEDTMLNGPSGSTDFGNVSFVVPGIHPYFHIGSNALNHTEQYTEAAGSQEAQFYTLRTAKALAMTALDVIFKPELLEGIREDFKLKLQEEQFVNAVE
UniProt Q8NBL1: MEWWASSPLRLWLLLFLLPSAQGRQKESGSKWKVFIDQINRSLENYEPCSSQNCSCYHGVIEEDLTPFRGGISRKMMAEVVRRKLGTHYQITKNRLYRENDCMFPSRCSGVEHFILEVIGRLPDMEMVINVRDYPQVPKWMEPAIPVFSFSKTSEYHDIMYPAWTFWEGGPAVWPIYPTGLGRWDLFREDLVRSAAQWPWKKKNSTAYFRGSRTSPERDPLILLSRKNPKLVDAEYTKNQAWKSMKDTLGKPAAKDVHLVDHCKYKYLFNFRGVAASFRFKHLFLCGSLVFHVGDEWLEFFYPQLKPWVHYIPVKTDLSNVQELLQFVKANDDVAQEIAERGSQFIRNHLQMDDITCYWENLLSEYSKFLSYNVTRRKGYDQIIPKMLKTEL
UniProt Q8TAP9: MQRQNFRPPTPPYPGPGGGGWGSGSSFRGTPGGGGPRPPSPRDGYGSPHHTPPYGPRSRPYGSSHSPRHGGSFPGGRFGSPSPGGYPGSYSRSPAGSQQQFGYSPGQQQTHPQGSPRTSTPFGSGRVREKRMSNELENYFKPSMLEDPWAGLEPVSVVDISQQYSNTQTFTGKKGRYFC
UniProt Q8NC56: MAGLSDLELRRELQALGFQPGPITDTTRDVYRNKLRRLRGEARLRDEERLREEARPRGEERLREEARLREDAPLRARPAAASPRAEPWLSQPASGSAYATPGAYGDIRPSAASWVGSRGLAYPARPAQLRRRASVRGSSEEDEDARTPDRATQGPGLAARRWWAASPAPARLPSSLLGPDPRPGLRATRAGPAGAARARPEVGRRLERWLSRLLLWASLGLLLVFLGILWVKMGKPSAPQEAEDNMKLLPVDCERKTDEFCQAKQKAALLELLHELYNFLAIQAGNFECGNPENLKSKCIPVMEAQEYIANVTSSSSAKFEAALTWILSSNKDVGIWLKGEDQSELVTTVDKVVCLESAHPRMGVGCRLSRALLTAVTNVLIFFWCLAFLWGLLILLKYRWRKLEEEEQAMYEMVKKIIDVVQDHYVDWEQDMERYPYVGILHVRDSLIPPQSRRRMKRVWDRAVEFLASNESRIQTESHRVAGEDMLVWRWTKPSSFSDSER
UniProt Q8IW41: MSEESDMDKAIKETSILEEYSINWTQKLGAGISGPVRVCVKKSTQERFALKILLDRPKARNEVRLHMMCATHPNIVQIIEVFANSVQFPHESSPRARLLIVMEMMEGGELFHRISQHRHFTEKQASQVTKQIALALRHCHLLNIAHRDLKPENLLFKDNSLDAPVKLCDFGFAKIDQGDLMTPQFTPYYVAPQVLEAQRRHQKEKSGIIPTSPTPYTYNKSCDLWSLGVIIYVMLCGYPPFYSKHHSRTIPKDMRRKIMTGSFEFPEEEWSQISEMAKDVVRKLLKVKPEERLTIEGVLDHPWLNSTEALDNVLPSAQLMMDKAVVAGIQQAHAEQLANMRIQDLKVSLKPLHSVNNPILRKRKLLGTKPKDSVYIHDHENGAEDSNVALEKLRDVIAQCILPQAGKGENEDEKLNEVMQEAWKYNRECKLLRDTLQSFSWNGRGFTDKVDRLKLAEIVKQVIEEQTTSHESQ
UniProt Q8N668, whole entry: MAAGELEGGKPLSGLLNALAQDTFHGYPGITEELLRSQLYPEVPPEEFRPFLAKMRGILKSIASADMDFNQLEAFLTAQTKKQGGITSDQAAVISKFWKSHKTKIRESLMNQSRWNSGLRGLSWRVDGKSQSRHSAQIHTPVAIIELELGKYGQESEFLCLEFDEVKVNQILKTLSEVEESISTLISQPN
UniProt Q8TEA8: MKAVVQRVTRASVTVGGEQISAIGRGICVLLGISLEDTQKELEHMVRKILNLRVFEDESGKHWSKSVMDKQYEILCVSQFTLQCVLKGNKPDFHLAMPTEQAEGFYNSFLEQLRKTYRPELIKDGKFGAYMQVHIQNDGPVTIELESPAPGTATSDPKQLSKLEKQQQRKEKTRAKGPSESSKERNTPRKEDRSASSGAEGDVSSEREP
UniProt Q8N9V3: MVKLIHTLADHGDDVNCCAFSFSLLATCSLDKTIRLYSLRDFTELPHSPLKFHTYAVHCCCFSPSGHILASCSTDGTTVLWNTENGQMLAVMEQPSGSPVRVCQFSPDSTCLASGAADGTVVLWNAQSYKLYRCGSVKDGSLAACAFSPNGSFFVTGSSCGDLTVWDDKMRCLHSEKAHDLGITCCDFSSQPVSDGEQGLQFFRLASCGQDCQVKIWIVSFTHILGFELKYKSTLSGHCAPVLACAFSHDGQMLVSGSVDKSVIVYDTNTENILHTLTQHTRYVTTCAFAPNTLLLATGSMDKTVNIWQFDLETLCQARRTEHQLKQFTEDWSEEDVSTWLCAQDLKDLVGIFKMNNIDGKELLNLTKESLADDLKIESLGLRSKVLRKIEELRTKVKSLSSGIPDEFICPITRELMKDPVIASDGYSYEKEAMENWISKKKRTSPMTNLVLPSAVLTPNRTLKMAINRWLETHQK
UniProt Q86XL3: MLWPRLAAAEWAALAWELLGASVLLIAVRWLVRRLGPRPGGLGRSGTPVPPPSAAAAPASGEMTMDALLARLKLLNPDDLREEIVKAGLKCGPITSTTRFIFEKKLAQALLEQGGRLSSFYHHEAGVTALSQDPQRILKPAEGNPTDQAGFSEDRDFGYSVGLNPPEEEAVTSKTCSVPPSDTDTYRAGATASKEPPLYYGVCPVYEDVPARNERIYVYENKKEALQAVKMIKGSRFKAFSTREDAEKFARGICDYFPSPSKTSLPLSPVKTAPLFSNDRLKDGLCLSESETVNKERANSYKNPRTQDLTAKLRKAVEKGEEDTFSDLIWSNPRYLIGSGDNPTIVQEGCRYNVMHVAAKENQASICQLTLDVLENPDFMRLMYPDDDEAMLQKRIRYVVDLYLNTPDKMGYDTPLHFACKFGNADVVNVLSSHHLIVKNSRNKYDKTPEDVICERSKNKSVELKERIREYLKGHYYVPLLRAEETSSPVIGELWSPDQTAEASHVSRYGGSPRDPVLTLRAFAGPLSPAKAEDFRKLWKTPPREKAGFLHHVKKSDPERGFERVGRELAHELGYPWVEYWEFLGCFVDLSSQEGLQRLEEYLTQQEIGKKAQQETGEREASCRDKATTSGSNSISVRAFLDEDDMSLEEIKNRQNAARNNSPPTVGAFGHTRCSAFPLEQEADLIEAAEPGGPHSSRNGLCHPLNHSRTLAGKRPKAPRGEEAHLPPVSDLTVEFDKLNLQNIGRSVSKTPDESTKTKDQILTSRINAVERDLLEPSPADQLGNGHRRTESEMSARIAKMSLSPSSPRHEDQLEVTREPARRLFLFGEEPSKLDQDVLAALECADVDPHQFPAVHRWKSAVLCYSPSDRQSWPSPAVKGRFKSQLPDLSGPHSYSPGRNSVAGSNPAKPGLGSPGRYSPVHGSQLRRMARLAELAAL
UniProt Q8ND82: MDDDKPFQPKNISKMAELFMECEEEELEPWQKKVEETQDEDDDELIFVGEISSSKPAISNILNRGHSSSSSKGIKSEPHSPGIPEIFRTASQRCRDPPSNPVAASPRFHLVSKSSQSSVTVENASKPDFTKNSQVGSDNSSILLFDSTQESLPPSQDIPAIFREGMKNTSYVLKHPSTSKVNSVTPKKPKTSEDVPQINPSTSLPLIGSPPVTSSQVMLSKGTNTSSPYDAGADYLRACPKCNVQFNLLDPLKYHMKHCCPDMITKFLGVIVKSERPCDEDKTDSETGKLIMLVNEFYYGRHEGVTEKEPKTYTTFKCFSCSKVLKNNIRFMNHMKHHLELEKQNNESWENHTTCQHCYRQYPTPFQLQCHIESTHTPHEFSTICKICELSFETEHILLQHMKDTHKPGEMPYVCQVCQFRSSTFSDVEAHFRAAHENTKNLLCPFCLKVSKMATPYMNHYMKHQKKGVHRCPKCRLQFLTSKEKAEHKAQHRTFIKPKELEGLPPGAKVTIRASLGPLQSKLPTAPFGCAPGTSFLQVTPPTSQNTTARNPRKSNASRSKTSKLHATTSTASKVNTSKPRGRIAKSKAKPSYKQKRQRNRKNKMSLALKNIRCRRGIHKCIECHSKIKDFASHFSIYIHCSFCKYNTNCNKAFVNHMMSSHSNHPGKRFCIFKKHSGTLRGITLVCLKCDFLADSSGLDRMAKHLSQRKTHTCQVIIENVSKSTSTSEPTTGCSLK

Compound: Nc1nc2c(ncn2[C@@H]2O[C@H](COP(=O)(O)OP(=O)(O)OP(=O)(O)O)[C@@H](O)[C@H]2O)c(=O)[nH]1 [guanosine triphosphate]
Assay: NP40-soluble protein abundance relative to vehicle (solubility fold change) (ratio); higher = more soluble protein in presence of GTP
Method in brief: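 In three independent experiments, Jurkat crude lysate made by Dounce homogenisation was treated for 10 min at room temperature and then 3 min at 37 °C with eight concentrations ranging from 0.1 to 10 mM. It was then solubilised with 0.8% NP40 plus benzonase for 60 min at 4 °C and ultracentrifuged. The supernatant was TMT-labelled for LC-MS/MS, and each value is the fold change against the detergent-processed vehicle for the same replicate, using vsn-normalised intensities.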

Target	NP40-soluble protein abundance (concentration: 0.1mM)	NP40-soluble protein abundance (concentration: 0.5mM)	NP40-soluble protein abundance (concentration: 1mM)	NP40-soluble protein abundance (concentration: 2mM)	NP40-soluble protein abundance (concentration: 4mM)	NP40-soluble protein abundance (concentration: 6mM)	NP40-soluble protein abundance (concentration: 8mM)	NP40-soluble protein abundance (concentration: 10mM)
UniProt Q8IWI9 and related entries	1.05 ± 0.081	1.07 ± 0.026	1.09 ± 0.033	1.08 ± 0.073	1.1 ± 0.11	1.11 ± 0.11	1.19 ± 0.12	1.15 ± 0.15
LYSMD2 (UniProt Q8IV50)	1.01 ± 0.064	0.968 ± 0.051	0.935 ± 0.054	0.916 ± 0.039	0.896 ± 0.031	0.907 ± 0.055	0.894 ± 0.045	0.913 ± 0.024
PTGR2 (UniProt Q8N8N7)	0.991 ± 0.06	1.03 ± 0.091	0.974 ± 0.053	0.962 ± 0.067	0.918 ± 0.077	0.911 ± 0.064	0.909 ± 0.079	0.898 ± 0.08
TMEM102 (UniProt Q8N9M5)	0.897 ± 0.027	0.859 ± 0.13	0.873 ± 0.05	0.901 ± 0.1	0.92 ± 0.077	0.909 ± 0.071	0.849 ± 0.022	0.821 ± 0.059
UniProt Q8N163	0.965 ± 0.019	1.01 ± 0.057	1.07 ± 0.14	1.12 ± 0.19	1.16 ± 0.26	1.14 ± 0.23	1.14 ± 0.21	1.09 ± 0.21
PM20D2 (UniProt Q8IYS1)	0.977 ± 0.071	0.969 ± 0.062	0.91 ± 0.08	0.904 ± 0.052	0.908 ± 0.066	0.89 ± 0.053	0.866 ± 0.085	0.843 ± 0.095
UniProt Q8IWD4 and related entries	0.937 ± 0.046	0.954 ± 0.064	0.981 ± 0.018	0.992 ± 0.084	0.927 ± 0.022	0.935 ± 0.045	0.971 ± 0.017	1.01 ± 0.072
UniProt Q8NBL1	0.975 ± 0.019	0.975 ± 0.024	0.936 ± 0.029	0.935 ± 0.045	0.908 ± 0.064	0.927 ± 0.074	0.941 ± 0.028	0.924 ± 0.034
UniProt Q8TAP9	0.932 ± 0.08	0.93 ± 0.11	1.07 ± 0.075	1.04 ± 0.17	0.916 ± 0.12	1.04 ± 0.2	1.03 ± 0.065	1.11 ± 0.23
LEMD2 (UniProt Q8NC56)	1.09 ± 0.04	1.22 ± 0.11	1.32 ± 0.076	1.34 ± 0.15	1.34 ± 0.088	1.42 ± 0.11	1.48 ± 0.14	1.49 ± 0.21
UniProt Q8IUF8 and related entries	1.08 ± 0.13	1.12 ± 0.15	1.04 ± 0.11	1.14 ± 0.11	1.13 ± 0.11	1.14 ± 0.12	1.14 ± 0.061	1.08 ± 0.077
ZNF579 (UniProt Q8NAF0)	1.04 ± 0.04	0.954 ± 0.054	1 ± 0.048	0.991 ± 0.072	0.99 ± 0.059	0.938 ± 0.064	0.982 ± 0.042	1 ± 0.061
UniProt Q8IW41 and related entries	1.09 ± 0.062	1.12 ± 0.045	1.04 ± 0.13	1.04 ± 0.015	0.943 ± 0.014	0.92 ± 0.11	0.897 ± 0.086	0.9015 ± 0.0035
UniProt Q86Y37 and related entries	0.963 ± 0.063	0.923 ± 0.074	0.9527 ± 0.0029	0.9274 ± 0.0067	0.907 ± 0.091	0.905 ± 0.048	0.87 ± 0.057	0.889 ± 0.054
UniProt Q8IUD2 and related entries	0.966 ± 0.022	0.971 ± 0.069	0.993 ± 0.058	0.985 ± 0.091	0.96 ± 0.055	0.964 ± 0.081	0.99 ± 0.044	0.998 ± 0.064
COMMD1 (UniProt Q8N668)	0.891 ± 0.062	0.865 ± 0.077	0.99 ± 0.018	0.905 ± 0.03	0.903 ± 0.04	0.96 ± 0.026	0.925 ± 0.075	0.934 ± 0.012
UniProt Q8TEP8-3	1.01 ± 0.1	1.038 ± 0.0016	1.09 ± 0.019	1.1 ± 0.039	1.07 ± 0.018	1.06 ± 0.027	1.07 ± 0.059	1.03 ± 0.11
ZC3H15 (UniProt Q8WU90)	0.985 ± 0.043	0.968 ± 0.042	0.983 ± 0.06	0.936 ± 0.072	0.955 ± 0.065	0.953 ± 0.076	0.993 ± 0.053	0.967 ± 0.067
UniProt Q8TEA8 and related entries	0.932 ± 0.048	0.949 ± 0.066	0.888 ± 0.015	0.904 ± 0.047	0.84 ± 0.022	0.893 ± 0.063	0.8855 ± 0.0087	0.875 ± 0.045
UniProt Q8N9V3 and related entries	0.99 ± 0.016	1.01 ± 0.015	0.951 ± 0.081	0.962 ± 0.067	0.926 ± 0.09	0.938 ± 0.095	0.92 ± 0.096	0.935 ± 0.12
UniProt Q86XL3 and related entries	1.01 ± 0.031	1 ± 0.033	1 ± 0.029	0.987 ± 0.021	0.999 ± 0.017	0.97 ± 0.0097	1 ± 0.016	0.991 ± 0.019
UniProt Q86X76-2|Q86X76 and related entries	1.08 ± 0.052	1.05 ± 0.056	0.961 ± 0.012	0.978 ± 0.044	0.946 ± 0.034	0.94 ± 0.037	0.932 ± 0.053	0.902 ± 0.064
UniProt Q8TCE6 and related entries	1.05 ± 0.026	1.03 ± 0.035	1.01 ± 0.015	1.05 ± 0.022	1.05 ± 0.025	1.03 ± 0.017	1.01 ± 0.039	0.998 ± 0.01
UniProt Q8N6G5 and related entries	0.847 ± 0.047	1.05 ± 0.073	0.8819 ± 0.0086	0.965 ± 0.026	0.871 ± 0.024	1.01 ± 0.086	0.894 ± 0.016	0.99 ± 0.051
SPATA5 (UniProt Q8NB90)	1.12 ± 0.034	1.18 ± 0.065	1.27 ± 0.075	1.44 ± 0.097	1.62 ± 0.11	1.59 ± 0.098	1.63 ± 0.092	1.62 ± 0.1
UniProt Q8ND82 and related entries	1.04 ± 0.085	1.01 ± 0.028	1.14 ± 0.099	1.08 ± 0.065	1.08 ± 0.14	1.11 ± 0.21	1.14 ± 0.054	1.31 ± 0.095
HOMER1 (UniProt Q86YM7)	1.05 ± 0.24	0.912 ± 0.11	1.05 ± 0.16	0.997 ± 0.052	1.1 ± 0.14	0.945 ± 0.16	1.01 ± 0.22	1.06 ± 0.16
UBA3 (UniProt Q8TBC4)	1.03 ± 0.018	1.01 ± 0.02	0.9609 ± 0.0082	0.956 ± 0.053	0.967 ± 0.017	0.943 ± 0.032	0.914 ± 0.029	0.927 ± 0.052
UniProt Q8N4J0	1.06 ± 0.047	1.05 ± 0.089	0.9094 ± 0.0032	0.911 ± 0.079	0.879 ± 0.092	0.877 ± 0.068	0.875 ± 0.061	0.805 ± 0.1
ARFGAP1 (UniProt Q8N6T3)	0.914 ± 0.068	0.887 ± 0.076	0.914 ± 0.085	0.872 ± 0.12	0.887 ± 0.11	0.865 ± 0.1	0.874 ± 0.091	0.874 ± 0.096

Exported field by field: part of the list above
LEMD2 (UniProt Q8NC56)
  NP40-soluble protein abundance (concentration: 0.1mM): 1.09 ± 0.04; NP40-soluble protein abundance (concentration: 0.5mM): 1.22 ± 0.11; NP40-soluble protein abundance (concentration: 1mM): 1.32 ± 0.076; NP40-soluble protein abundance (concentration: 2mM): 1.34 ± 0.15; NP40-soluble protein abundance (concentration: 4mM): 1.34 ± 0.088; NP40-soluble protein abundance (concentration: 6mM): 1.42 ± 0.11; NP40-soluble protein abundance (concentration: 8mM): 1.48 ± 0.14; NP40-soluble protein abundance (concentration: 10mM): 1.49 ± 0.21
HOMER1 (UniProt Q86YM7)
  NP40-soluble protein abundance (concentration: 0.1mM): 1.05 ± 0.24; NP40-soluble protein abundance (concentration: 0.5mM): 0.912 ± 0.11; NP40-soluble protein abundance (concentration: 1mM): 1.05 ± 0.16; NP40-soluble protein abundance (concentration: 2mM): 0.997 ± 0.052; NP40-soluble protein abundance (concentration: 4mM): 1.1 ± 0.14; NP40-soluble protein abundance (concentration: 6mM): 0.945 ± 0.16; NP40-soluble protein abundance (concentration: 8mM): 1.01 ± 0.22; NP40-soluble protein abundance (concentration: 10mM): 1.06 ± 0.16
